In all, about 1,900 compounds were measured (“excess over highest single agent (ExcessHSA) synergy score, 6x6 matrix”: median about -83, lowest 2% from about -370 on). The list shows a part of the results.
system: NCI-H446; experiment: excess over highest single agent (ExcessHSA) synergy score, 6x6 matrix; higher = less synergy (more negative = stronger synergy); conditions: 72 h; CellTiter-Glo viability

Row | SMILES | excess over highest single agent
1 | Cc1ccc(-c2cc(C(F)(F)F)nn2-c2ccc(S(N)(=O)=O)cc2)cc1 + Cc1sc2c(c1C)C(c1ccc(Cl)cc1)=N[C@@H](CC(=O)OC(C)(C)C)c1nnc(C)n1-2 [NCGC00250412-19] | -197
2 | CCOC(=O)[C@@H](C)Oc1cccc2c(=O)n(CC(=O)Nc3ccc4c(c3)OCCO4)ccc12 + Cc1sc2c(c1C)C(c1ccc(Cl)cc1)=N[C@@H](CC(=O)OC(C)(C)C)c1nnc(C)n1-2 [NCGC00250412-19] | -46.9
3 | CO[C@H]1CC[C@@H](O[C@H]2C[C@H]([C@]3(C)CC[C@]4(C[C@H](O)[C@@H](C)[C@@H]([C@@H](C)/C=C(\C)C(=O)[C@H](C)C[C@H](C)C(=O)O)O4)O3)O[C@]3(O[C@@H]([C@H]4O[C@@](O)(CO)[C@H](C)C[C@@H]4C)C[C@@H]3C)[C@@H]2C)O[C@@H]1C + Cc1sc2c(c1C)C(c1ccc(Cl)cc1)=N[C@@H](CC(=O)OC(C)(C)C)c1nnc(C)n1-2 [NCGC00250412-19] | -220
4 | Cc1c(-c2ccc(O)cc2)n(Cc2ccc(OCCN3CCCCCC3)cc2)c2ccc(O)cc12 + Cc1sc2c(c1C)C(c1ccc(Cl)cc1)=N[C@@H](CC(=O)OC(C)(C)C)c1nnc(C)n1-2 [NCGC00250412-19] | -207
5 | NC[C@H](O)c1ccc(O)c(O)c1 + Cc1sc2c(c1C)C(c1ccc(Cl)cc1)=N[C@@H](CC(=O)OC(C)(C)C)c1nnc(C)n1-2 [NCGC00250412-19] | -87.8
6 | C=Cc1c(C)c2cc3nc(cc4[nH]c(cc5nc(cc1[nH]2)C(C)=C5CCC(=O)O)c(CCC(=O)OC)c4C)[C@@]1(C)C3=CC=C(C(=O)OC)[C@H]1C(=O)OC + Cc1sc2c(c1C)C(c1ccc(Cl)cc1)=N[C@@H](CC(=O)OC(C)(C)C)c1nnc(C)n1-2 [NCGC00250412-19] | 17.6
7 | CN(C)CC/C=C1/c2ccccc2COc2ccc(CC(=O)O)cc21 + Cc1sc2c(c1C)C(c1ccc(Cl)cc1)=N[C@@H](CC(=O)OC(C)(C)C)c1nnc(C)n1-2 [NCGC00250412-19] | -97.6
8 | CC1=C2C[C@H]3[C@@H](CC=C4C[C@@H](O)CC[C@@]43C)[C@@H]2CC[C@]12O[C@@H]1C[C@H](C)CN[C@H]1[C@H]2C + Cc1sc2c(c1C)C(c1ccc(Cl)cc1)=N[C@@H](CC(=O)OC(C)(C)C)c1nnc(C)n1-2 [NCGC00250412-19] | 144
9 | C[C@H](NC(=O)C(=O)Nc1ccccc1C(C)(C)C)C(=O)N[C@@H](CC(=O)O)C(=O)COc1c(F)c(F)cc(F)c1F + Cc1sc2c(c1C)C(c1ccc(Cl)cc1)=N[C@@H](CC(=O)OC(C)(C)C)c1nnc(C)n1-2 [NCGC00250412-19] | 15.5
10 | C[C@@H]1CN(Cc2ccc(F)cc2)[C@@H](C)CN1C(=O)c1cc2c(C(=O)C(=O)N(C)C)cn(C)c2cc1Cl + Cc1sc2c(c1C)C(c1ccc(Cl)cc1)=N[C@@H](CC(=O)OC(C)(C)C)c1nnc(C)n1-2 [NCGC00250412-19] | 110
11 | O=C1CCCC(=O)C1C(=O)c1ccc(C(F)(F)F)cc1[N+](=O)[O-] + Cc1sc2c(c1C)C(c1ccc(Cl)cc1)=N[C@@H](CC(=O)OC(C)(C)C)c1nnc(C)n1-2 [NCGC00250412-19] | -184
12 | Cc1ccc(-n2nc(C(C)(C)C)cc2NC(=O)Nc2ccc(OCCN3CCOCC3)c3ccccc23)cc1 + Cc1sc2c(c1C)C(c1ccc(Cl)cc1)=N[C@@H](CC(=O)OC(C)(C)C)c1nnc(C)n1-2 [NCGC00250412-19] | -49.7
13 | C/C=C/C/C=C/CCC(=O)[C@H]1O[C@H]1C(N)=O + Cc1sc2c(c1C)C(c1ccc(Cl)cc1)=N[C@@H](CC(=O)OC(C)(C)C)c1nnc(C)n1-2 [NCGC00250412-19] | 42.2
14 | CNC(=O)c1ccc(C)c(-n2c(C)cc(OCc3ccc(F)cc3F)c(Br)c2=O)c1 + Cc1sc2c(c1C)C(c1ccc(Cl)cc1)=N[C@@H](CC(=O)OC(C)(C)C)c1nnc(C)n1-2 [NCGC00250412-19] | -96.4
15 | N#C/C(=C(/O)c1ccc(Cl)cc1Cl)c1nc2cc(Cl)ccc2c(=O)[nH]1 + Cc1sc2c(c1C)C(c1ccc(Cl)cc1)=N[C@@H](CC(=O)OC(C)(C)C)c1nnc(C)n1-2 [NCGC00250412-19] | -216
16 | CN[C@@H](C)C(=O)N[C@H]1CCCC[C@H]2CC[C@@H](C(=O)N[C@@H](c3ccccc3)c3cn(CCCCc4ccc(CCCCn5cc([C@@H](NC(=O)[C@@H]6CC[C@@H]7CCCC[C@H](NC(=O)[C@H](C)NC)C(=O)N76)c6ccccc6)nn5)cc4)nn3)N2C1=O + Cc1sc2c(c1C)C(c1ccc(Cl)cc1)=N[C@@H](CC(=O)OC(C)(C)C)c1nnc(C)n1-2 [NCGC00250412-19] | -208
17 | CC(C)C[C@H](NC(=O)CNC(=O)c1cc(Cl)ccc1Cl)B1OC(=O)C(CC(=O)O)(CC(=O)O)O1 + Cc1sc2c(c1C)C(c1ccc(Cl)cc1)=N[C@@H](CC(=O)OC(C)(C)C)c1nnc(C)n1-2 [NCGC00250412-19] | -240
18 | CCN(CC)CCCCNc1ncc2cc(-c3cc(OC)cc(OC)c3)c(NC(=O)NC(C)(C)C)nc2n1 + Cc1sc2c(c1C)C(c1ccc(Cl)cc1)=N[C@@H](CC(=O)OC(C)(C)C)c1nnc(C)n1-2 [NCGC00250412-19] | -104
19 | CC(C)(O)Cn1c(NC(=O)c2ccc(-c3cn[nH]c3)s2)nc2cc(CN3CCOCC3)ccc21 + Cc1sc2c(c1C)C(c1ccc(Cl)cc1)=N[C@@H](CC(=O)OC(C)(C)C)c1nnc(C)n1-2 [NCGC00250412-19] | -423
20 | CCCOc1ccc(C(=O)OCCN(CC)CC)cc1N + Cc1sc2c(c1C)C(c1ccc(Cl)cc1)=N[C@@H](CC(=O)OC(C)(C)C)c1nnc(C)n1-2 [NCGC00250412-19] | 83.1
21 | Cc1cc(SCc2sc(-c3ccc(C(F)(F)F)cc3)nc2C)ccc1OCC(=O)O + Cc1sc2c(c1C)C(c1ccc(Cl)cc1)=N[C@@H](CC(=O)OC(C)(C)C)c1nnc(C)n1-2 [NCGC00250412-19] | -98.3
22 | CCOc1cc2c(c(F)c1OCC)C(=N)N(CC(=O)c1cc(N3CCOCC3)c(OC)c(C(C)(C)C)c1)C2 + Cc1sc2c(c1C)C(c1ccc(Cl)cc1)=N[C@@H](CC(=O)OC(C)(C)C)c1nnc(C)n1-2 [NCGC00250412-19] | -86.3

Another view of part of the listing above.
Row	SMILES	excess over highest single agent
14	CNC(=O)c1ccc(C)c(-n2c(C)cc(OCc3ccc(F)cc3F)c(Br)c2=O)c1 + Cc1sc2c(c1C)C(c1ccc(Cl)cc1)=N[C@@H](CC(=O)OC(C)(C)C)c1nnc(C)n1-2 [NCGC00250412-19]	-96.4
15	N#C/C(=C(/O)c1ccc(Cl)cc1Cl)c1nc2cc(Cl)ccc2c(=O)[nH]1 + Cc1sc2c(c1C)C(c1ccc(Cl)cc1)=N[C@@H](CC(=O)OC(C)(C)C)c1nnc(C)n1-2 [NCGC00250412-19]	-216
